Assay results: patent US20030152959A1
Results are given in words; binding and its absence hold for the method and conditions named. Binding seen in cells or lysates may run through a third protein. Some binding calls cover weakened binding; strength is not graded here.

Protein sequences, listed by entry. Tags and fused reporters are not part of them.
UniProt Q00403: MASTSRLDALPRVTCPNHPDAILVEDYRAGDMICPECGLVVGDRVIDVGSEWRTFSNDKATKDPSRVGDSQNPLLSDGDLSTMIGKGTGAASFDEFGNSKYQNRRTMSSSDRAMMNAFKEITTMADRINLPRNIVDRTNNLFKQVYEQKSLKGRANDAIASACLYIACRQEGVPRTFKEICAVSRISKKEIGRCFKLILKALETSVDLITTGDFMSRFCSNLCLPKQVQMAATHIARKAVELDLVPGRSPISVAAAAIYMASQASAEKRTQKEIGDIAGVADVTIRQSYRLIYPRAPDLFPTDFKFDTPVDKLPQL
UniProt P03372: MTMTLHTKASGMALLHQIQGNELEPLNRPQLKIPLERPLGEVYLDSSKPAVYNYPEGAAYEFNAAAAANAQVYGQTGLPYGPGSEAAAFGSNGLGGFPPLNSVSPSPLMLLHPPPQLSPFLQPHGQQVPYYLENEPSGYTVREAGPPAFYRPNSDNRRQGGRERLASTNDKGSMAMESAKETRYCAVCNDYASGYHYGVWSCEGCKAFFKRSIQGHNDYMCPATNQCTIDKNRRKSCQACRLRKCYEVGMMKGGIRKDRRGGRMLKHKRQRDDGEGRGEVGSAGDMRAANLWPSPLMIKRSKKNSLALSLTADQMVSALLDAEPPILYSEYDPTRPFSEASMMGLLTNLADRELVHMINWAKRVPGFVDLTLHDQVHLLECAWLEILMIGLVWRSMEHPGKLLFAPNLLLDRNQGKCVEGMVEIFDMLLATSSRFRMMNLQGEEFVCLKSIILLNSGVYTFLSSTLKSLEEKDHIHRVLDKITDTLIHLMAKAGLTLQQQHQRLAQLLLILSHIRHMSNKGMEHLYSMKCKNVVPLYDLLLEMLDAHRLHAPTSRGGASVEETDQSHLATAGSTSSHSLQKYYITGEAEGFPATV

What was measured:
human ERRα1 (human) [1] = target: T1, human ERRα1 (human) (UniProt P11474); assay: GST pull-down, 35S-labelled ERRα1 from reticulocyte lysate
T1 sequence: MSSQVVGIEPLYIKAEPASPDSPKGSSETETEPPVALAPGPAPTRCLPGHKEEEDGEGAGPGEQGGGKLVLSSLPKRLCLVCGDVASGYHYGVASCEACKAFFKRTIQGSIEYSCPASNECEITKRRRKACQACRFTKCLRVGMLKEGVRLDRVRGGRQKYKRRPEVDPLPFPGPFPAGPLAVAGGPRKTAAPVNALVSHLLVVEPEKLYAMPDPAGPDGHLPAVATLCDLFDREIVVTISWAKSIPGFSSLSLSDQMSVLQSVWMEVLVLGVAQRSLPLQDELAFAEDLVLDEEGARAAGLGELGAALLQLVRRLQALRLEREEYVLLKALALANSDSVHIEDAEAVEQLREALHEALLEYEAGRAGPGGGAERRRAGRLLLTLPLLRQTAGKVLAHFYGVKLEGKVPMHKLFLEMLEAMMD

TFIIB = TFIIB (UniProt Q00403); assay: GST pull-down on glutathione-Sepharose, 35S-labelled TFIIB from reticulocyte lysate, SDS-PAGE and fluorography
human ERRα1 (human) [2] = target: T1, human ERRα1 (human); assay: GST pull-down, figure legend of FIG. 9A

GST-TFIIB (from UniProt Q00403 1-316) was tested, and the binding (human ERRα1 (human) [1]) was “binds”.

With “GST-COUP-TF1 (from UniProt P08515 1-218; P10589 1-423)” the binding (TFIIB) was “binds”.

In the case of GST-ERα (from UniProt P03372 1-595), the binding (human ERRα1 (human) [2]) is reported as “binds”, the binding (human ERRα1 (human) [1]) is reported as “binds” and the binding (TFIIB) is reported as “binds”.
